Values of other authors in patent US20230096856A1, “COMBINED TREATMENT REGIMEN OF […]/SEDATION WITH ADMINISTRATION OF P[…] ASSOCIATED WITH REDUCTION IN NEUROP[…]” (priority 2021, published 2023).
For at least one compound, name, drawing or mass did not settle the structure.

Tests used:
[1] = test system: treatment-resistant major depression; conditions: after two drug doses
[2] = test system: extracellular glutamate levels; conditions: rat models

## CN(C)CCc1c[nH]c2cccc(OP(=O)(O)O)c12 [psilocybin]
[1]
  participants with large and sustained symptom reduction: 71%
  persistence of symptom reduction after the intervention: at least 8 weeks
[2]
  extracellular glutamate levels in prefrontal-limbic circuitry: increases extracellular glutamate levels
